This is an account of results in PMC7347935, “STK11 (LKB1) missense somatic mutant isoforms promote tumor growth, motility and inflammation” (Communications Biology, 2020).

The target of the test is T1, LKB1^WT (STK11, Liver kinase 1), wild-type isoform (human) (UniProt Q15831).
T1 sequence: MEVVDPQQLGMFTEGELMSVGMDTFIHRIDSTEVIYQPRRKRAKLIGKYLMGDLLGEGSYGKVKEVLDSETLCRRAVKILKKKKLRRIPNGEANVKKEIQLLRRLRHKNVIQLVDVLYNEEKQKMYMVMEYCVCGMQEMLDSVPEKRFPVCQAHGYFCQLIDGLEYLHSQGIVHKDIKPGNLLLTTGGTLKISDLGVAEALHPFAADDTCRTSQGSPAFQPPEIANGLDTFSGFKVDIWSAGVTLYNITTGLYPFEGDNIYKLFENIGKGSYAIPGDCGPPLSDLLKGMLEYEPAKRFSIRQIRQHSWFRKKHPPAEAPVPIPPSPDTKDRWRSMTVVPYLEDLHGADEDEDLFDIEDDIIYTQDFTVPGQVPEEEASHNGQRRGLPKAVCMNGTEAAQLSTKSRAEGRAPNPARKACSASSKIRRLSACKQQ
The experiment in a line: co-IP; LKB1 immunocomplexes from A549 and G361 cells expressing doxycycline-induced LKB1 isoforms; STRADα detected by western blot; duplicate immunoprecipitates for each isoform. A general note: A western blot detects proteins with antibodies after separation by electrophoresis.

Results are given in words; binding and its absence hold for the method and conditions named. Binding seen in cells or lysates may run through a third protein. Some entries that bind do so weakly or less than the wild type.

B1: STRADα (natural protein, human (endogenous in A549 and G361), UniProt Q7RTN6 1-431, looked up)
chain: MSFLVSKPERIRRWVSEKFIVEGLRDLELFGEQPPGDTRRKTNDASSESIASFSKQEVMSSFLPEGGCYELLTVIGKGFEDLMTVNLARYKPTGEYVTVRRINLEACSNEMVTFLQGELHVSKLFNHPNIVPYRATFIADNELWVVTSFMAYGSAKDLICTHFMDGMNELAIAYILQGVLKALDYIHHMGYVHRSVKASHILISVDGKVYLSGLRSNLSMISHGQRQRVVHDFPKYSVKVLPWLSPEVLQQNLQGYDAKSDIYSVGITACELANGHVPFKDMPATQMLLEKLNGTVPCLLDTSTIPAEELTMSPSRSVANSGLSDSLTTSTPRPSNGDSPSHPYHRTFSPHFHHFVEQCLQRNPDARPSASTLLNHSFFKQIKRRASEALPELLRPVTPITNFEGSQSQDHSGIFGLVTNLEELEVDDWEF
With B1, the binding entry is “binds”.
